The list shows a part of the results. The source does not settle which construct or isoform was used.
target: T1, ETS1 (UniProt P14921); test: DAPPL (digital affinity profiling via proximity ligation, sequencing); conditions: 10 mM Tris-HCl pH 7.5, 50 mM NaCl, 1 mM DTT, 4% glycerol, room temperature, 30 min; GST-TFs on glutathione beads, 16-mer random dsDNA library, 0.1% …; high values mean tight binding; double strand, one strand shown; scale: fold enrichment (6-mer frequency, TF over GST control)
T1 sequence: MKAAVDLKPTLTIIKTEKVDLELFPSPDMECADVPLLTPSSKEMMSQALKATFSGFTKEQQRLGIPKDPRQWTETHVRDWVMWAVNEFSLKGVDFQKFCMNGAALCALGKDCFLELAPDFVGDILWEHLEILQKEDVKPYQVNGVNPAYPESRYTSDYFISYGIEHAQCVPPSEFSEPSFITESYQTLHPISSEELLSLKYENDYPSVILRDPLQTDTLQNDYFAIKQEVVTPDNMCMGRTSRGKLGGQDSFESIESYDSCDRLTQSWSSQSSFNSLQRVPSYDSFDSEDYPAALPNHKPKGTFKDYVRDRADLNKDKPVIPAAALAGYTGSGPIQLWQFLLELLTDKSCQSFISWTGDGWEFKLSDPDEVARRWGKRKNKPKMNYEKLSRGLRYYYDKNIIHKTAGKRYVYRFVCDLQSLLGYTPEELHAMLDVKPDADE

Row | Sequence | binding signal
1 | ACTACT | 1.3
2 | TTCACC | 1.36
3 | CCGGAA | 5.16
4 | GAACCC | 1.17
5 | TGGCAA | 1.31
6 | CCTGGT | 1.4
7 | ACAGAT | 1.01
8 | GGCTCT | 1.2
9 | CGCTTC | 2.05
10 | GTATAT | 1.27
11 | CTAGTT | 1.3
12 | ATGAGC | 1.24
13 | AACCTC | 1.15
14 | GTGGCT | 1.14
15 | CTTGGG | 1.22
16 | GCCTCC | 1.29
17 | CGATCT | 1.41
18 | ACCGAT | 1.11
19 | CTATAT | 1.57
20 | GATGGT | 1.3

Row | Sequence | binding signal
21 | GATATA | 1.07
22 | TGTGGA | 1.01
23 | TAGTCC | 1.25
24 | CTGGAC | 1.14
25 | ATCTTC | 1.5
26 | CGCTCA | 1.19
27 | TGCCAA | 1.11
28 | CATGAA | 1.03
29 | TTAAGT | 1.14
30 | TTTAAA | 1.29
31 | AGCTAA | 1.04
32 | ATTGAT | 1.19
33 | CATCGA | 1.02
34 | ACCACT | 1.31
35 | TACCCG | 1.52
36 | TCTAGT | 1.14
37 | AATCCC | 1.24
38 | CGATAC | 1.09
39 | TTATTG | 1.35
40 | ACTTTT | 1.32

Some values from the entries so far:
ATGAGC | binding signal: 1.24
TTATTG | binding signal: 1.35
